Measured values taken from PubChem BioAssay (NCATS).
The inconclusive results got no clear call from the source; some entries with a clear call stand among them for comparison. Potencies of inconclusive entries are doubtful fits and often do not repeat. Activity calls are given as the source filed them. Calls follow the shape of the dose curve; as a rule, active = well fitted curve in the direction sought with a large enough effect; inconclusive = small, poorly fitted or top-dose-only effect, or another doubt; inactive = no such curve, though single readings can be large; an effect the other way counts as inactive or inconclusive.

Experiments:
[1] = Quantitative High-Throughput drug screen in 47 multiple myeloma cell lines against the NCATS MIPE library collection: JIM3_ECACC cell viability assay (AID 1918963; also: nearly all actives have a fitted effect of over 35% in size); details: JIM3 myeloma viability, CellTiter-Glo ATP, 48 h; series mostly up to 45.8 µM
Summary of the method: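 Viability readout: CellTiter-Glo luminescence following 5 min room-temperature incubation with reagent. Prior exposure: 48 h, 37C, humidified 5% CO2, 500 cells per well.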

[2] = Quantitative High-Throughput drug screen in 47 multiple myeloma cell lines against the NCATS MIPE library collection: JIM1_ECACC cell viability assay (AID 1918964); details: JIM1 myeloma viability, CellTiter-Glo ATP luminescence, 48 h; viability (% of DMSO): at 45.8 µM (top of the series)
Summary of the method: (§1)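 CellTiter-Glo ATP luminescence gave viability after 48 h compound treatment at 37C of 500 multiple myeloma cells per well. Normalisation used DMSO-only wells as 100% and media-only wells as 0% viability; primary qHTS of approved and investigational drugs.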

[3] = Quantitative High-Throughput drug screen in 47 multiple myeloma cell lines against the NCATS MIPE library collection: INA6_PLB cell viability assay (AID 1918965; also: nearly all actives have a fitted effect of over 55% in size); details: INA6 myeloma viability, CellTiter-Glo ATP luminescence, 48 h; viability (% of control): at 45.8 µM (top of the series)
Summary of the method: (§2)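 Approved and investigational drugs from MIPE 4.0 were added by pin tool to 500 cells per well. After 48 hours at 37C, ATP-based CellTiter-Glo luminescence indicated remaining viability.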

[4] = Quantitative High-Throughput drug screen in 47 multiple myeloma cell lines against the NCATS MIPE library collection: JJN3_DSMZ cell viability assay (AID 1918966; also: nearly all actives have a fitted effect of over 50% in size); details: JJN3 myeloma cells viability, CellTiter-Glo ATP, 48 h; series mostly up to 45.8 µM
Summary of the method: as §1

[5] = Quantitative High-Throughput drug screen in 47 multiple myeloma cell lines against the NCATS MIPE library collection: Karpas25_ECACC cell viability assay (AID 1918968; also: nearly all actives have a fitted effect of over 35% in size); details: Karpas25 myeloma viability, CellTiter-Glo ATP, 48 h; viability (% of control): at 45.8 µM (top of the series)
Summary of the method: as §1

[6] = Quantitative High-Throughput drug screen in 47 multiple myeloma cell lines against the NCATS MIPE library collection: KMS12BM_JCRB cell viability assay (AID 1918971); also: nearly all actives have a fitted effect of over 35% in size
Summary of the method: (§3)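 Myeloma cell lines, 500 cells per well, exposed to MIPE 4.0 library compounds for 48 h at 37C, 5% CO2. Viability from ATP by CellTiter-Glo luminescence; normalised to DMSO (100%) and media-only (0%) wells.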

[7] = Quantitative High-Throughput drug screen in 47 multiple myeloma cell lines against the NCATS MIPE library collection: KMS12PE_JCRB cell viability assay (AID 1918972); details: KMS12PE myeloma viability, CellTiter-Glo ATP, 48 h; viability: at 45.8 µM (top of the series); also: nearly all actives have a fitted effect of over 30% in size
Summary of the method: as §2

[8] = Quantitative High-Throughput drug screen in 47 multiple myeloma cell lines against the NCATS MIPE library collection: KMS21BM_JCRB cell viability assay (AID 1918974); details: ATP luminescence, 48 h; viability: at 45.8 µM (top of the series) unless noted
Summary of the method: as §1

[9] = Quantitative High-Throughput drug screen in 47 multiple myeloma cell lines against the NCATS MIPE library collection: KMS26_JCRB cell viability assay (AID 1918975); details: KMS26 myeloma cells viability, CellTiter-Glo ATP, 48 h; viability (% of DMSO): at 45.8 µM (top of the series); also: nearly all actives have a fitted effect of over 45% in size
Summary of the method: as §3

[10] = Quantitative High-Throughput drug screen in 47 multiple myeloma cell lines against the NCATS MIPE library collection: MMM1_PLB cell viability assay (AID 1918976); also: nearly all actives have a fitted effect of over 35% in size
Summary of the method: (§4)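 MIPE 4.0 approved/investigational drugs; 500 cells/well; 48 h 37 °C humidified 5% CO2; CTG luminescence readout; DMSO = 100%, media = 0% viability.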

[11] = Quantitative High-Throughput drug screen in 47 multiple myeloma cell lines against the NCATS MIPE library collection: MOLP8_DSMZ cell viability assay (AID 1918977); details: MOLP8 myeloma viability, CellTiter-Glo ATP luminescence, 48 h; viability (% of control): at 45.8 µM (top of the series); also: nearly all actives have a fitted effect of over 45% in size
Summary of the method: as §4

[12] = Quantitative High-Throughput drug screen in 47 multiple myeloma cell lines against the NCATS MIPE library collection: NCIH929_DSMZ cell viability assay (AID 1918978); also: nearly all actives have a fitted effect of over 35% in size
Summary of the method: as §4

[13] = Quantitative High-Throughput drug screen in 47 multiple myeloma cell lines against the NCATS MIPE library collection: OCIMY1_PLB cell viability assay (AID 1918979); also: nearly all actives have a fitted effect of over 35% in size
Summary of the method: as §4

[14] = Quantitative High-Throughput drug screen in 47 multiple myeloma cell lines against the NCATS MIPE library collection: MM1S_ATCC cell viability assay (AID 1918980); also: nearly all actives have a fitted effect of over 45% in size
Summary of the method: as §4

[15] = Quantitative High-Throughput drug screen in 47 multiple myeloma cell lines against the NCATS MIPE library collection: MM1R_ATCC cell viability assay (AID 1918981); also: nearly all actives have a fitted effect of over 35% in size
Summary of the method: as §4

[16] = Quantitative High-Throughput drug screen in 47 multiple myeloma cell lines against the NCATS MIPE library collection: LP1_DSMZ cell viability assay (AID 1918982); also: nearly all actives have a fitted effect of over 35% in size
Summary of the method: as §4

[17] = Quantitative High-Throughput drug screen in 47 multiple myeloma cell lines against the NCATS MIPE library collection: KMS28PE_JCRB cell viability assay (AID 1918983); also: nearly all actives have a fitted effect of over 35% in size
Summary of the method: as §4

[18] = Quantitative High-Throughput drug screen in 47 multiple myeloma cell lines against the NCATS MIPE library collection: KMS27_JCRB cell viability assay (AID 1918970); details: KMS27 myeloma cells, CellTiter-Glo ATP viability, 48 h; viability (% of DMSO): at 45.8 µM (top of the series); also: nearly all actives have a fitted effect of over 30% in size
Summary of the method: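 Each line is seeded at 500 cells per well and treated with library compounds for 48 hours under 37 °C, 5% CO2. CellTiter-Glo is then added for 5 min at room temperature before median relative luminescence is recorded.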

[19] = Quantitative High-Throughput drug screen in 47 multiple myeloma cell lines against the NCATS MIPE library collection: KMS20_JCRB cell viability assay (AID 1918973); details: CellTiter-Glo ATP, 48 h; viability (% of DMSO): at 45.8 µM (top of the series); also: nearly all actives have a fitted effect of over 45% in size
Summary of the method: as §1
Potency is read from the fitted curve at half-maximal effect.

| Structure (SMILES) | Potency [1] | Potency [2] | Potency [3] | Potency [4] | Potency [5] | Potency [6] | Potency [7] | Potency [8] | Potency [9] | Potency [10] | Potency [11] | Potency [12] | Potency [13] | Potency [14] | Potency [15] | Potency [16] | Potency [17] | Potency [18] | Potency [19] |
| --- | --- | --- | --- | --- | --- | --- | --- | --- | --- | --- | --- | --- | --- | --- | --- | --- | --- | --- | --- |
| c1ccc2c(-c3cnn4cc(-c5ccc(N6CCNCC6)cc5)cnc34)ccnc2c1 | inconclusive: 2.96 µM [cytotoxic, full curve, poor fit] | inconclusive: 1.32 µM [cytotoxic, full curve, poor fit] | active: 2.35 µM | inconclusive: 14.8 µM [cytotoxic, partial curve, poor fit] | inconclusive: 1.18 µM [cytotoxic, full curve, poor fit] | active: 14.8 µM | inconclusive: 0.935 µM [cytotoxic, full curve, poor fit] | inconclusive: 2.35 µM [cytotoxic, full curve, poor fit] | inconclusive: 6.62 µM [cytotoxic, full curve, poor fit] | inconclusive: 9.35 µM [cytotoxic, partial curve, poor fit] | inconclusive: 6.62 µM [cytotoxic, full curve, poor fit] | inconclusive: 1.05 µM [cytotoxic, full curve, poor fit] | inconclusive: 20.9 µM [cytotoxic, partial curve, poor fit] | inconclusive: 0.0037 µM [rising, full curve] | inconclusive: 7.43 µM [cytotoxic, partial curve, poor fit] | inconclusive: 18.7 µM [cytotoxic, partial curve, poor fit] | inconclusive: 18.7 µM [cytotoxic, partial curve, poor fit] |  |  |
| CCn1cc(C(=O)O)c(=O)c2cc(F)c(N3CCNCC3)nc21 | inactive | inconclusive: 0.0372 µM [rising, full curve, poor fit] | inactive | inactive |  | inconclusive: 0.0015 µM [rising, full curve, poor fit] | inconclusive: 0.0033 µM [rising, full curve, poor fit] | inconclusive: 0.0105 µM [rising, full curve] | inconclusive: 0.001 µM | inconclusive: 0.0037 µM [rising, full curve, poor fit] | inconclusive: 0.0023 µM [rising, full curve, poor fit] | inconclusive: 37.2 µM [cytotoxic, single point] | inconclusive: 0.0019 µM [rising, full curve] | inconclusive: 2.96 µM [rising, partial curve, poor fit] | inconclusive: 0.0093 µM [rising, full curve, poor fit] | inconclusive: 0.0019 µM [rising, full curve] | inconclusive: 0.0037 µM [rising, full curve, poor fit] |  |  |
| CCCNCC(O)COc1ccccc1C(=O)CCc1ccccc1 (stereo unspecified) | inactive | inconclusive: 26.4 µM [cytotoxic, single point] | inconclusive: 20.9 µM [cytotoxic, partial curve, poor fit] | inactive |  | inactive | inconclusive: 33.2 µM [cytotoxic, single point] |  | inconclusive: 0.132 µM [cytotoxic, full curve, poor fit] | inconclusive: 33.2 µM [cytotoxic, single point] | inactive | inactive | inconclusive: 0.0026 µM [rising, full curve, poor fit] | inconclusive: 20.9 µM [cytotoxic, single point] | inactive | inconclusive: 23.5 µM [cytotoxic, single point] |  | inconclusive: 26.4 µM [cytotoxic, single point] | inconclusive: 20.9 µM [cytotoxic, partial curve, poor fit] |
| C1Cc2[nH]nc(-c3nn[nH]n3)c2C1 | inconclusive: 37.2 µM [cytotoxic, single point] | inconclusive: 0.0047 µM [rising, full curve, poor fit] | inactive | inconclusive: 0.0132 µM [rising, full curve, poor fit] |  | inactive | inactive | inconclusive: 0.187 µM [rising, full curve, poor fit] | inactive |  | inconclusive: 23.5 µM [cytotoxic, single point] |  | inconclusive: 0.001 µM [cytotoxic] | inactive |  | inactive | inactive | inactive |  |
| Cc1ccc([C@@H]2O[C@H](CO)[C@@H](O)[C@H](O)[C@@H]2O)cc1Cc1ccc(-c2ccc(F)cc2)s1 | inconclusive: 20.9 µM [cytotoxic, partial curve] | inconclusive: 37.2 µM [cytotoxic, single point] | inconclusive: 26.4 µM [cytotoxic, partial curve, poor fit] | inconclusive: 37.2 µM [cytotoxic, single point] | inconclusive: 33.2 µM [cytotoxic, single point] | inactive | active: 20.9 µM |  | inconclusive: 33.2 µM [cytotoxic, single point] | inconclusive: 26.4 µM [cytotoxic, single point] |  | inconclusive: 23.5 µM [cytotoxic, single point] | inconclusive: 0.0017 µM [rising, full curve, poor fit] | inconclusive: 33.2 µM [cytotoxic, single point] |  | inconclusive: 18.7 µM [cytotoxic, partial curve] | inactive |  | inconclusive: 16.6 µM [cytotoxic, partial curve, poor fit] |
| COc1ccc(CC2SC(=O)NC2=O)cc1C(=O)NCc1ccc(C(F)(F)F)cc1 (stereo unspecified) | inactive | inconclusive: 11.8 µM [cytotoxic, single point] | inconclusive: 29.6 µM [cytotoxic, single point] | inactive | active: 5.9 µM | inactive | inconclusive: 18.7 µM [cytotoxic, single point] |  | inconclusive: 0.0037 µM [rising, full curve, poor fit] | inconclusive: 0.0296 µM [rising, full curve] | inactive |  | inconclusive: 0.935 µM [rising, partial curve, poor fit] | inconclusive: 33.2 µM [cytotoxic, single point] | inactive |  |  |  |  |
| CO[C@H]1C[C@@H]2CC[C@@H](C)[C@@](O)(O2)C(=O)C(=O)N2CCCC[C@@H]2C(=O)O[C@H]([C@H](C)C[C@@H]2CC[C@H](OP(C)(C)=O)[C@H](OC)C2)CC(=O)[C@H](C)C=C(C)[C@@H](O)[C@@H](OC)C(=O)[C@H](C)C[C@H](C)C=CC=CC=C1C | inconclusive: 16.6 µM [cytotoxic, partial curve, poor fit] | inconclusive: 18.7 µM [cytotoxic, partial curve, poor fit] | inconclusive: 0.059 µM [cytotoxic, full curve] | inconclusive: 37.2 µM [cytotoxic, single point] |  | inconclusive: 20.9 µM [cytotoxic, single point] | inconclusive: 18.7 µM [cytotoxic, partial curve] | active: 18.7 µM | inconclusive: 0.0019 µM [cytotoxic, full curve, poor fit] | inconclusive: 18.7 µM [cytotoxic, partial curve, poor fit] | inconclusive: 37.2 µM [cytotoxic, single point] | inconclusive: 33.2 µM [cytotoxic, partial curve, poor fit] | inconclusive: 33.2 µM [cytotoxic, single point] | inactive |  |  |  | inconclusive: 16.6 µM [cytotoxic, partial curve] | inconclusive: 33.2 µM [cytotoxic, single point] |
| COC(=O)N1CCN(Cc2cccc(NC(=O)Nc3ccc(C)nc3)c2F)CC1 | inconclusive: 1.32 µM [cytotoxic, full curve, poor fit] | inactive | inconclusive: 2.09 µM [cytotoxic, full curve, poor fit] | inconclusive: 5.9 µM [cytotoxic, partial curve, poor fit] | inconclusive: 20.9 µM [cytotoxic, single point] |  | inactive | inconclusive: 23.5 µM [rising, partial curve] |  | inconclusive: 26.4 µM [cytotoxic, single point] | inactive |  |  | inconclusive: 1.87 µM [cytotoxic, full curve, poor fit] | inconclusive: 0.0418 µM [cytotoxic, full curve, poor fit] | active: 16.6 µM | inconclusive: 23.5 µM [cytotoxic, partial curve, poor fit] |  | inconclusive: 0.0166 µM [cytotoxic, full curve, poor fit] |
| CCC=CC[C@H]1C(=O)CC[C@@H]1CC(=O)OC | inactive | inactive | inactive | inconclusive: 0.0012 µM [cytotoxic, full curve, poor fit] | inactive |  |  | inactive |  |  | inactive |  |  | inconclusive: 33.2 µM [cytotoxic, single point] | inconclusive: 0.001 µM [cytotoxic] |  | inactive |  | inactive |
